Primary screen of a compound library

Each number is a percent effect as filed. How 0% and 100% were set is not recorded. Most values in the screen are low, and negative values occur. The compounds are a random part of those screened. Two or more numbers in one place are separate tests of the same structure; such repeats can differ widely.

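Phenotypic screen: M. tuberculosis growth, glucose 7H9 medium, 3 days; the read-out is not stated. Tested at 50 µM. Higher reads as more growth inhibition (inferred: compounds with an IC50 in retests scored well above the rest). About 69,000 compounds were tested under these conditions; 1.1% (about 760) showed 50% or more at least once.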

{"compound": "CS(=O)(=O)Nc1ccn(Cc2cccc(F)c2)n1", "percent effect": 14.93}
{"compound": "CN(C)c1ccc(C(=O)N2CCN(c3cnccn3)CC2)cn1", "percent effect": -13.18}
{"compound": "CC(C)c1csc(NC(=O)NC2CCCN(c3cnn(C)c3)C2)n1", "stereo": "centres unmarked", "percent effect": 5.766}
{"compound": "CC1CN(CC(=O)NCc2ccccn2)CCN1Cc1nccn1C", "stereo": "centres unmarked", "percent effect": -17.07}
{"compound": "CNC(=O)[C@@H]1C[C@@H](NC(=O)Cc2nonc2C)CN1Cc1sccc1C", "percent effect": -0.6073}
{"compound": "CC(C)=CCN1CCN(Cc2cc(C)c(O)c(C)c2)CC1CCO", "stereo": "centres unmarked", "percent effect": -31.27}
{"compound": "COc1c(CNCc2ccc(C(=O)N(C)C(C)C)cc2)c(C)nn1C", "percent effect": -17.3}
{"compound": "Cc1cc(NC(=O)CN2CCc3c(nc(C(C)C)n3C)C2)on1", "percent effect": "3.716 and -26.15"}
{"compound": "Cc1cnn(CCNCC(O)COc2c(Cl)cccc2Cl)c1", "stereo": "centres unmarked", "percent effect": -4.398}
{"compound": "CCc1nccn1-c1cccc(C2CCN(C(=O)COC)CC2)n1", "percent effect": -2.801}
{"compound": "CCn1ncnc1CN1CCC(CNC(=O)c2cccnc2O)C1", "stereo": "centres unmarked", "percent effect": 27.44}
{"compound": "Cc1noc(C2CCC3(CCN(C(=O)c4ccn(C)n4)CC3)O2)n1", "stereo": "centres unmarked", "percent effect": -20.27}
{"compound": "Cc1ccc(C(N)=O)cc1NCCOc1cccc(C#N)c1", "percent effect": 4.472}
{"compound": "O=C(O)C(F)(F)F.[H][C@@]12OCCN(CC3CC3)[C@@]1([H])CC[C@H]2OCC1CCOCC1", "percent effect": -16.47}
{"compound": "Cc1ncc(CN(C)Cn2nc(-c3ccccc3)oc2=O)s1", "percent effect": 1.937}
{"compound": "NC(=O)c1ccc(N2CCCCC2)c(NC(=O)c2cc(Br)ccc2Cl)c1", "percent effect": "-3.56 and 10.33"}
{"compound": "O=S(=O)(NC1=NCN(CCc2ccccc2)CN1)c1ccc(F)cc1", "percent effect": -13.49}
{"compound": "O=C(c1cc(-c2cccs2)cs1)N1CCSCC1", "percent effect": 55.56}
{"compound": "CCN(CCO)C[C@@H]1CN(C(=O)c2sc3ccccc3c2C)C[C@@H]1CO", "percent effect": -21.3}
{"compound": "[H][C@]12CN(CC(C)C)C(=O)[C@@]1([H])CN(c1cnccn1)C2", "percent effect": -25.4}
{"compound": "CSCCC(=O)N1CCC(CCC(=O)NCC2CCCO2)CC1", "stereo": "centres unmarked", "percent effect": "-0.5128 and -9.077"}
{"compound": "O=C(c1cn[nH]c1)N1CCC2(CCCN(Cc3ccc(F)c(F)c3)C2)C1", "stereo": "centres unmarked", "percent effect": 12.7}
{"compound": "CC(C)n1cc(S(=O)(=O)N2CCCC(N3CCCCC3)C2)cn1", "stereo": "centres unmarked", "percent effect": -12.17}
{"compound": "Cc1ccnn1CCNC(=O)c1cnc(N(C)C)nc1", "percent effect": -31.62}
{"compound": "COc1ccc(NC2(C(=O)N3CCCn4cncc4C3)CCCC2)cc1", "percent effect": "12.62 and 5.362"}
{"compound": "Cc1nc(C)c(CNC(=O)NC2CC(C)(C)OC2(C)C)s1", "stereo": "centres unmarked", "percent effect": -17.95}
{"compound": "COc1c(Br)c(C(=O)NC2CC2)nn1C", "percent effect": -14.9}
{"compound": "CCOc1ccc(Cl)c(C(=O)N2CCN(CCO)CC2)n1", "percent effect": -14.6}
{"compound": "O=C(O)C(F)(F)F.c1coc(CN2Cc3ccnn3CC(COCC3CC3)C2)c1", "stereo": "centres unmarked", "percent effect": "3.139 and -12.98"}
{"compound": "O=S(=O)(C1CC1)N1CCC2(COCc3cnc(-c4cccnc4)nc32)C1", "stereo": "centres unmarked", "percent effect": 18.78}
{"compound": "CN1CCC(c2cccc(C(=O)N(C)C)n2)CC1", "percent effect": 8.927}
{"compound": "Cc1cc(C(=O)NCc2ccnc(OCC(F)(F)F)c2)no1", "percent effect": 40.97}
{"compound": "COC(=O)c1cc(C(=O)N2CCCCCC2)n(-c2ccccc2)n1", "percent effect": -45.59}
{"compound": "CN(C)c1cc(CNC(=O)c2cc(Cl)ccn2)ccn1", "percent effect": 3.971}
{"compound": "CC(C)C(NC(=O)c1ccccc1)C(=O)N1CCC2(CC1)OCCO2", "stereo": "centres unmarked", "percent effect": "22.34 and -5.116"}
{"compound": "Fc1cccc(CN2CCC[C@H](Cn3nnc(-c4ccccn4)n3)C2)c1", "percent effect": 8.117}
{"compound": "Cc1cc(N2CCN(C3CCSCC3)CC2)n2nc(C)c(C)c2n1", "percent effect": -4.704}
{"compound": "CCn1cc2c(n1)CN(Cc1ccoc1)CC2COCC1CC1.O=C(O)C(F)(F)F", "stereo": "centres unmarked", "percent effect": -8.377}
{"compound": "O=C(O)C(F)(F)F.O=C(O)C(F)(F)F.[H][C@@]12CCN(Cc3ccoc3)C[C@@]1([H])[C@H](C(=O)NCc1ccccn1)CCO2", "percent effect": -11.94}
{"compound": "CC(=O)Nc1nc(C2CN(C(=O)C3CCC3)C2)cs1", "percent effect": 11.64}
{"compound": "N#Cc1cc2c(=O)n(CC(O)c3cccc(O)c3)ccc2[nH]c1=O", "stereo": "centres unmarked", "percent effect": -7.713}
{"compound": "CCc1cnc(CN(C)C2CCN(CCS(C)(=O)=O)C2)o1", "stereo": "centres unmarked", "percent effect": "5.889 and -4.536"}
{"compound": "CCc1noc(CN2CCCC2c2noc(C3CC3)n2)n1", "stereo": "centres unmarked", "percent effect": 6.462}
{"compound": "O=C(C1CCCO1)N1CCc2nnc(Cn3cccc3)n2CC1", "stereo": "centres unmarked", "percent effect": "-2.891 and -13.89"}
{"compound": "COc1ccc(CNC(C)c2cnc3cc(C)nn3c2C)cc1", "stereo": "centres unmarked", "percent effect": "5.239 and -0.5392"}
{"compound": "Cc1cccnc1C(=O)N1CCCC(c2[nH]ncc2S(C)(=O)=O)C1", "stereo": "centres unmarked", "percent effect": 4.317}
{"compound": "CC(O)CN1CCN(C(=O)CN(C)c2ccc(C#N)cn2)CC1", "stereo": "centres unmarked", "percent effect": "-26.22 and -0.1595"}
{"compound": "Cc1nn(C)c(N2CCOCC2)c1CNC1CCN(C2CC2)CC1", "percent effect": 8.576}
{"compound": "Cc1c(C(=O)N2CC(O)C2)nnn1-c1cccc2cnccc12", "percent effect": -1.887}
{"compound": "O=C(O)C(F)(F)F.[H][C@]12CCN(c3ncc(C)cn3)[C@@]1([H])CC[C@H](COCC(=O)N(C)C)O2", "percent effect": 15.19}
{"compound": "Cc1ccc(NC2CCN(C(=O)c3cccc4c3ccn4C)CC2)nn1", "percent effect": 0.3589}
{"compound": "COc1c(C2CCCN2C(=O)c2ccc3cc[nH]c3c2)c(C)nn1C", "stereo": "centres unmarked", "percent effect": 0.5531}
{"compound": "Cc1ccc(OCC(O)CN(C)CC(=O)NC(C)C)c(C)c1", "stereo": "centres unmarked", "percent effect": -34.98}
{"compound": "O=C(CN1CCOC(CNc2cccnn2)C1)N1CCCCC1", "stereo": "centres unmarked", "percent effect": 5.552}
{"compound": "COCCNc1cc(-c2ccccc2C(=O)O)c2cc[nH]c2n1", "percent effect": -42.44}
{"compound": "Cn1nc(C2CCCN2)c2c(C(=O)NC3CC3)cc(C3CC3)nc21", "stereo": "centres unmarked", "percent effect": -0.4161}
{"compound": "O=C(c1ccsc1)N1CC(c2nc(-c3ccc[nH]c3=O)no2)C1", "percent effect": "-37.51 and -1.583"}

From ChEMBL document CHEMBL3988442, “University of Dundee, Small-Polar-MMV Screening Library” (2021).